This is one part of the list.
The targets below were run with COc1ccc(Cn2ccc3cc(C)c(C(=O)NO)cc32)cc1 (assay: dose-dependent thermal stabilisation call (2D-TPP, DLPTP, 10% FDR) (binary (1 = stabilised)); higher = stabilised by the compound). Details: system: HL-60 intact cells; concentration range 0.04-10 µM.
Description: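 2D thermal proteome profiling in intact HL-60 cells treated with BRD-3811 (0, 0.04, 0.29, 2, 10 uM) for 90 min at 37 C, then heated 3 min at one of 12 temperatures (42-63.9 C). Soluble protein was quantified by TMT10 MS. The value is the DLPTP call of the paper: dose-dependent thermal stabilisation over all temperatures at 10% FDR (F-test of a dose-response against a flat model); one experiment, one call per tested protein.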

Sequences of proteins named here, by UniProt entry; tags and fusion partners are left off. A change or cut given only in a name is not applied to a line headed by its entry.
UniProt Q9UER7, whole entry: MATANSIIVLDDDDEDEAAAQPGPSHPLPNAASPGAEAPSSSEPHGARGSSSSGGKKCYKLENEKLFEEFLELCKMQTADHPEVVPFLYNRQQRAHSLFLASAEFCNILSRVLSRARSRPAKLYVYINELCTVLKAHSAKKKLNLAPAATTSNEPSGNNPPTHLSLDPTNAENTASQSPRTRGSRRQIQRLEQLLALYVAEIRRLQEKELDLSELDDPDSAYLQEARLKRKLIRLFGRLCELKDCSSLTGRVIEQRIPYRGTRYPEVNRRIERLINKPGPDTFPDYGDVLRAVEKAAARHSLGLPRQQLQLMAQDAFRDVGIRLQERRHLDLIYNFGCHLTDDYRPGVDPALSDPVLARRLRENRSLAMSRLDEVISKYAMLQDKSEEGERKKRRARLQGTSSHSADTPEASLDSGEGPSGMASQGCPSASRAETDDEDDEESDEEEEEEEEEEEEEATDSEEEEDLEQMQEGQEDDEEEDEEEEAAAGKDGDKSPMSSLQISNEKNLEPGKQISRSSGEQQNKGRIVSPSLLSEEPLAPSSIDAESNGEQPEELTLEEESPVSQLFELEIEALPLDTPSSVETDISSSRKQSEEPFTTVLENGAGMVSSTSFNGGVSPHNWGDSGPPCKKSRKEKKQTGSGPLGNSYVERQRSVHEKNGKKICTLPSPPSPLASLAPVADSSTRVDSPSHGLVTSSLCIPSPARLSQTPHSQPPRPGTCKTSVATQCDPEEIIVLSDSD
UniProt Q9H8E8: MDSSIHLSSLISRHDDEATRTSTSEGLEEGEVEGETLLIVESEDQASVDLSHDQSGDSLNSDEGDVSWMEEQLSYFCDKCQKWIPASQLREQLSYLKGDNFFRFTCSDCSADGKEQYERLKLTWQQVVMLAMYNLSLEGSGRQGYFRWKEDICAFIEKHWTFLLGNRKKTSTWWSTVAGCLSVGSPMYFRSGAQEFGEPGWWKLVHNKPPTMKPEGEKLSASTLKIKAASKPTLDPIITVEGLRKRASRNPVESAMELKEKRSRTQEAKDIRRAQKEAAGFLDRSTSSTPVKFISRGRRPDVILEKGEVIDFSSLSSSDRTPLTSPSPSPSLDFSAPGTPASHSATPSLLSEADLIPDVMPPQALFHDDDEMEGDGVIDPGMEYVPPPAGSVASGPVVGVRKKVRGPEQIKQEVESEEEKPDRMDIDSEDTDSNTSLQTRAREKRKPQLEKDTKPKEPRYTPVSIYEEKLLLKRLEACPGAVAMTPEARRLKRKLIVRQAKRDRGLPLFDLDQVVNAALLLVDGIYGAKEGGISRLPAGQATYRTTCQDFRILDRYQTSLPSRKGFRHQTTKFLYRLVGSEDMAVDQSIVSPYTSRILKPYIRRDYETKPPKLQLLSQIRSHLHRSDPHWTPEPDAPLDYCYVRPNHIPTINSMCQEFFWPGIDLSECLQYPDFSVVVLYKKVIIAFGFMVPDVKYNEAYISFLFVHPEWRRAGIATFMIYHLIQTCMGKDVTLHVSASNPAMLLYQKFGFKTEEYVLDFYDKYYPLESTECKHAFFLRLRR
UniProt Q8WXX5: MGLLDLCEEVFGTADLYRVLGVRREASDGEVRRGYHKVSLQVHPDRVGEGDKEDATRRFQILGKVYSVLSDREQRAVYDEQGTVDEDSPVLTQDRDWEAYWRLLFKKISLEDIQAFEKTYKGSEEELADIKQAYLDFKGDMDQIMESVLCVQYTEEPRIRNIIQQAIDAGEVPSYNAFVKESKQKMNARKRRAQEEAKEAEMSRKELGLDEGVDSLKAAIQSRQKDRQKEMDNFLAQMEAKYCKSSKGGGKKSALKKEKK
UniProt P00156: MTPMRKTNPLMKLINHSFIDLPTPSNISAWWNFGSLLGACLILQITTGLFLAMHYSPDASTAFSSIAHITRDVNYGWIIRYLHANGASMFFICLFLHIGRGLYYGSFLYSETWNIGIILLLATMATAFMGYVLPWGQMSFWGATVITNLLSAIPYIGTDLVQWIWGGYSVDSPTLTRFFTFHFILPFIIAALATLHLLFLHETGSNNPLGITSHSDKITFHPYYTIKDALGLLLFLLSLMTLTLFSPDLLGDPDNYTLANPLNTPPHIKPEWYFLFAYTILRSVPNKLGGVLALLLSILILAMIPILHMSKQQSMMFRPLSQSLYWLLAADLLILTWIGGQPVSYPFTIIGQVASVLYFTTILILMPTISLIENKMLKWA
UniProt P17844: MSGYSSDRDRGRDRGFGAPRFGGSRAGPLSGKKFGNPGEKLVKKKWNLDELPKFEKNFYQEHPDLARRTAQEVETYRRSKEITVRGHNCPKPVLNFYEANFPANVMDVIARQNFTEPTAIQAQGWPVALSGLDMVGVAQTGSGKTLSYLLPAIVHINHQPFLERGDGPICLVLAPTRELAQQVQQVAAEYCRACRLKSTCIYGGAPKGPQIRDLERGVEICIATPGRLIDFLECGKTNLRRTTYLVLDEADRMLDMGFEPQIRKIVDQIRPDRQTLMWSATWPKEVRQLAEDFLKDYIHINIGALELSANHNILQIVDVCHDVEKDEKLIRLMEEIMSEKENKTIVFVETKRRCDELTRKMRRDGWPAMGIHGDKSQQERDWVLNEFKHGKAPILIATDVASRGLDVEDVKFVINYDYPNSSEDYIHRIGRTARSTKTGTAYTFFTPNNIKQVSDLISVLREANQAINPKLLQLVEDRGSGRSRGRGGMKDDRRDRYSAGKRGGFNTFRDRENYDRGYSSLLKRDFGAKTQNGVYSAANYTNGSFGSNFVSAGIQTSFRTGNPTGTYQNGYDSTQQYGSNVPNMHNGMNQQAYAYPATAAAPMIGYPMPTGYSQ
UniProt Q9UJV9: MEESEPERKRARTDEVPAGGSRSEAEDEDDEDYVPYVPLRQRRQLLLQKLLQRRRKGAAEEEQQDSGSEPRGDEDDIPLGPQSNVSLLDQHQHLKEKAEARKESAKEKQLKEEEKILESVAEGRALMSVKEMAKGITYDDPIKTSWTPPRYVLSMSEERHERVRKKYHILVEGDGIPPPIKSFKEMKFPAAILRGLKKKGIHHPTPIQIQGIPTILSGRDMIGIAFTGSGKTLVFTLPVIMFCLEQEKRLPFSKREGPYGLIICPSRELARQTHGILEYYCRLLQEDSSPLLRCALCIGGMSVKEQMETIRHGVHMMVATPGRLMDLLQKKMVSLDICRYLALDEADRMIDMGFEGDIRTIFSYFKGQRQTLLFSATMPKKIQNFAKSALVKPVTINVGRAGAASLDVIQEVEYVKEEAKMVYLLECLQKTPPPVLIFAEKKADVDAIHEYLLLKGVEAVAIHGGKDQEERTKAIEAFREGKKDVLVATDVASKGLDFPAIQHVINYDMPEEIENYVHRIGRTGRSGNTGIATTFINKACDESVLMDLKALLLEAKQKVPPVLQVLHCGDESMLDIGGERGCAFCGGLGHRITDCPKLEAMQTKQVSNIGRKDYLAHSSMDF
UniProt Q9UBR2: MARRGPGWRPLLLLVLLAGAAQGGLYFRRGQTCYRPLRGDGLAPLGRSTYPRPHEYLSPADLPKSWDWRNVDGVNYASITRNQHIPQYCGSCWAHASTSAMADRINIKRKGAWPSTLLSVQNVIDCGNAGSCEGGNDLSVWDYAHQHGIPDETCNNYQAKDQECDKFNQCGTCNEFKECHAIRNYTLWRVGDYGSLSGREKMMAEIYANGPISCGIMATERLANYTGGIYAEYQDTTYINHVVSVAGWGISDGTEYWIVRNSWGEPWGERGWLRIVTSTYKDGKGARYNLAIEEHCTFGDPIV
UniProt Q7L576: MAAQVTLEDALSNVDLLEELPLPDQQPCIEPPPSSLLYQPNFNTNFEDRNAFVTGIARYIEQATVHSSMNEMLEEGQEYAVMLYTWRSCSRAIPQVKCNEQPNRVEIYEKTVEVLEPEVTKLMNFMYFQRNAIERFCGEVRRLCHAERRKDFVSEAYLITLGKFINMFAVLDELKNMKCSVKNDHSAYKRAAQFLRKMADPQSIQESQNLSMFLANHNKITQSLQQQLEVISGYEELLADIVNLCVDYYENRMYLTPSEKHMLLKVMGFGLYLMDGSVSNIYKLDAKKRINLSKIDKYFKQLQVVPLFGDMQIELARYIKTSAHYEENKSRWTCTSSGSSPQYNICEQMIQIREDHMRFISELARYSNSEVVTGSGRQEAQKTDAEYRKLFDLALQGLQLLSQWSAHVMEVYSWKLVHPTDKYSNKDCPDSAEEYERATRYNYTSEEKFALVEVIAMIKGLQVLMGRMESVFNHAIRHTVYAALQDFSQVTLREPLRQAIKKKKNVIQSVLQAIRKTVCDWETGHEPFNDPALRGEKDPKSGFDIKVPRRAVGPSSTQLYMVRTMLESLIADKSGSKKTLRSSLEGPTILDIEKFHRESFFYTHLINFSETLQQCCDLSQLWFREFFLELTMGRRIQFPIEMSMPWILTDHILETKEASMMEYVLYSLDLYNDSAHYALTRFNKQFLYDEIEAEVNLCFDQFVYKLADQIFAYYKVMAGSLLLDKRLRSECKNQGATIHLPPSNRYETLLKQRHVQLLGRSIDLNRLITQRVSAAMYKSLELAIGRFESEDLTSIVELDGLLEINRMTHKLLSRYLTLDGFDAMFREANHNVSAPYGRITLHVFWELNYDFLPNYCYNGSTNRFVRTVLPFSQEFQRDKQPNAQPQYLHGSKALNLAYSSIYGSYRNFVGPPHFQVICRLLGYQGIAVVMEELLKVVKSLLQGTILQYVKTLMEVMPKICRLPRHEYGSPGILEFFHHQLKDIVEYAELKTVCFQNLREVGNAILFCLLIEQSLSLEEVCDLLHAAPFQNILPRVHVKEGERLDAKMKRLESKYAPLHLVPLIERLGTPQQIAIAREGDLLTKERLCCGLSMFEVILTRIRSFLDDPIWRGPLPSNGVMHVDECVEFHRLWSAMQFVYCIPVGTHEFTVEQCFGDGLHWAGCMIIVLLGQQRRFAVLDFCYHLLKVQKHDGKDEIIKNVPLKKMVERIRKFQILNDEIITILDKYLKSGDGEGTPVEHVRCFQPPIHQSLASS

Target	dose-dependent thermal stabilisation call
DAXX (UniProt Q9UER7)	inactive: 0
CSRP2BP (UniProt Q9H8E8)	inactive: 0
CTR9 (UniProt Q6PD62)	inactive: 0
DNAJC9 (UniProt Q8WXX5)	inactive: 0
CYTB (UniProt P00156)	inactive: 0
DDX5 (UniProt P17844)	inactive: 0
DDX41 (UniProt Q9UJV9)	inactive: 0
CTSZ (UniProt Q9UBR2)	inactive: 0
CYFIP1 (UniProt Q7L576)	inactive: 0

Two entries drawn at random from those above, as already listed:
Target	dose-dependent thermal stabilisation call
CTR9 (UniProt Q6PD62)	inactive: 0
CYFIP1 (UniProt Q7L576)	inactive: 0

From the supplement of paper PMC7666118
